# Experimental data reported in PubChem BioAssay AID1487 (National Center for Advancing Translational Sciences (NCATS), 2009).
# The list shows a part of the results. These are further read-outs of the screen, such as a control signal, another cell line or another target. No call is given for them. Most of these compounds were active or inconclusive in the main read-out, so they are no random draw. Words in brackets tell the shape of the fitted curve; partial curves, single points and poor fits give uncertain potencies.
# Assay: qHTS Assay for Modulators of Lamin A Splicing
# Details: HeLa LMNA splicing GFP/RFP minigene ratio, 48 h
# Summary of the method: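 S3 HeLa cells stably expressing lamin A-EGFP splicing minigene plus DsRed2, 600 cells/well, 48 h compound exposure at 37C. Laser-scanning cytometry; analysed as GFP (500-530 nm)/RFP (575-640 nm) total intensity ratio; 0.5% DMSO vehicle.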
# [1] = measured here: GFP splicing reporter channel
# [2] = measured here: RFP viability control channel
Structure (SMILES),AC50 [1],AC50 [2]
CCCCOc1ncnc2c1[nH]c1ccc(F)cc12,"2 µM [rising, partial curve, poor fit]","3.98 µM [rising, partial curve]"
COC(=O)CCC(=O)OC1(C)C(=O)C=C2C=C(C3CC3)N(c3ccc(CO)cc3)C=C2C1=O (configuration not stated),"1.26 µM [rising, partial curve]",
CCC(CC)C(=O)Nc1nnc(SCc2cc(=O)c3ccccc3[nH]2)s1,"10 µM [falling, partial curve, poor fit]",
NC(=O)c1ccsc1NC(=O)c1ccc(S(=O)(=O)N2CCCC2)cc1,"1.26 µM [rising, single point]",
CCc1cccc(CC)c1NC(=S)NCc1ccc2[nH]c(C)cc2c1,,"35.5 µM [rising, single point]"
O=C1CCCC(O)=C1C(C#Cc1ccccc1)C1=C(O)CCCC1=O,,"11.2 µM [rising, partial curve, poor fit]"
O=S(=O)(c1ccc(Br)cc1)N1CCCC1c1nc2ccccc2s1 (configuration not stated),,"25.1 µM [rising, single point]"
O=C(/C=C/c1ccccc1)NCc1cccnc1,"35.5 µM [falling, partial curve, poor fit]",
CCn1c2c(c(=O)n3ncc(C(=O)Nc4ccc(C(=O)OC)cc4)c13)CN(Cc1ccc(OC)cc1)CC2,"0.0224 µM [falling, full curve, poor fit]",
Cc1ccc(NC(=O)C2(c3ccccc3)CCOCC2)cc1,"2.82 µM [falling, partial curve, poor fit]","0.316 µM [falling, full curve, poor fit]"
COc1ccc(-n2c(=O)c3ccccc3c3ccccc3c2=O)c(OC)c1,,"6.31 µM [rising, partial curve]"
Cc1ccc(NC(=O)C(=O)NCC(c2cccnc2)N2CCN(C)CC2)cc1 (configuration not stated),"22.4 µM [falling, single point]","25.1 µM [falling, partial curve]"
O=C(NCCc1ccc(Cl)cc1)C(=O)NCC(c1ccco1)S(=O)(=O)c1ccccc1 (configuration not stated),"0.891 µM [falling, full curve, poor fit]",
FC(F)(F)c1ccc(N2CCN(Cc3ccc4c(c3)OCO4)CC2)nc1,,"35.5 µM [rising, single point]"
C/C(=N\NC(=S)NCCc1ccccc1)c1ccc(C)cc1,,"35.5 µM [rising, single point]"
Cc1nn(-c2ccccc2)c(N)c1Sc1ccc([N+](=O)[O-])cc1,,"11.2 µM [rising, partial curve]"
COCc1ccc2oc(C(=O)O)cc2c1,,"0.02 µM [falling, full curve, poor fit]"
Clc1nc(NCc2ccco2)nc(N2CCCCC2)n1,"0.00355 µM [falling, full curve, poor fit]",
Cc1ccc(N(CC(O)Cn2nc(C)cc2C)S(=O)(=O)c2ccc3ccccc3c2)cc1 (configuration not stated),,"35.5 µM [rising, single point]"
Cc1c(C(=O)N2CCOCC2)sc2ncnc(N3CCc4ccccc4C3)c12,,"10 µM [rising, partial curve]"

# Some of the entries so far, with tabs:
Structure (SMILES)	AC50 [1]	AC50 [2]
CCc1cccc(CC)c1NC(=S)NCc1ccc2[nH]c(C)cc2c1		35.5 µM [rising, single point]
COCc1ccc2oc(C(=O)O)cc2c1		0.02 µM [falling, full curve, poor fit]

# Following part.

Structure (SMILES),AC50 [1],AC50 [2]
O=c1c(-c2ccc(F)cc2)coc2cc(O)ccc12,"11.2 µM [rising, single point]",
COc1cccc(OC)c1C(=O)NC(=S)Nc1ccc(N2CCOCC2)c(Cl)c1,,"0.0251 µM [falling, full curve, poor fit]"
c1ccc(-c2csc3ncn4nnnc4c23)cc1,"17.8 µM [falling, partial curve]","22.4 µM [falling, single point]"
CCOC(=O)c1c(-c2cccs2)csc1NC(=O)C(C)(C)C,"15.8 µM [rising, single point]","35.5 µM [rising, single point]"
COc1ccc(Cn2c(=O)[nH]c3cc(C(=O)N4CCN(Cc5ccccc5)CC4)ccc3c2=O)cc1,"3.55 µM [rising, partial curve]","3.98 µM [rising, full curve]"
CCC(=O)N1CC2(c3ccccc3)CN(C(=O)CC)CC(c3ccccc3)(C1)C2=O,,"35.5 µM [rising, single point]"
COc1ccc(NS(=O)(=O)c2ccc3oc(SCc4ccc(F)cc4)nc3c2)cc1,,"6.31 µM [rising, full curve]"
Cc1cc(C)cc(NC(=O)c2sc3nc[nH]c(=O)c3c2C)c1,"6.31 µM [falling, partial curve]",
O=C1CN(C(=O)CSc2nc(-c3ccc(Cl)cc3)cs2)c2ccccc2N1,,"35.5 µM [rising, single point]"
CCOC(=O)Cn1c(=O)n(CC2CCCO2)c2nc(-c3ccccc3Cl)nc(C(N)=O)c21 (configuration not stated),,"0.00316 µM [falling, full curve, poor fit]"
COc1cc(OC)c(OC)cc1CNc1cc(C)ccc1OC,"0.0794 µM [rising, full curve, poor fit]","20 µM [rising, partial curve]"
Clc1ccc(/C=C\c2nccc3c2[nH]c2ccccc23)cc1,,"8.91 µM [falling, partial curve, poor fit]"
Cc1cccc(C)c1NC(=O)CS(=O)CC(=O)NC1CCN(Cc2ccccc2)CC1 (configuration not stated),"3.55 µM [rising, partial curve, poor fit]","1.41 µM [rising, full curve, poor fit]"
CCOc1ccccc1NC(=O)/C(C#N)=C/c1c(C)nn(-c2ccc(F)cc2)c1Cl,,"0.2 µM [rising, full curve, poor fit]"
CCCCCCCCCCCCCCCC[n+]1cccc2ccccc21,,"35.5 µM [rising, single point]"
O=C1N/C(=C/c2cccn2-c2ccc(F)cc2)C(=O)N1Cc1ccccc1F,,"3.16 µM [rising, single point]"
CCCn1c2ccc(F)cc2c2nnc(NN)nc21,"22.4 µM [falling, single point]",
O=C(Nc1ccc2c(c1)OCCO2)C1CCCN(S(=O)(=O)c2cnc[nH]2)C1 (configuration not stated),,"0.282 µM [rising, partial curve]"
CC(C)N(Cc1nc(-c2ccc(Cl)cc2)no1)C(=O)CN(C)S(=O)(=O)c1ccc(Cl)cc1,,"17.8 µM [rising, single point]"
CCOc1ccccc1NC(=O)C1=C(C)Nc2ncnn2C1c1sccc1C (configuration not stated),,"0.00794 µM [falling, full curve]"

Structure (SMILES),AC50 [1],AC50 [2]
Cc1cccc(C(=O)N2CCN(c3ccc(C(F)(F)F)cn3)CC2)c1C,"14.1 µM [rising, single point]","35.5 µM [rising, single point]"
COc1cc(-c2nnc3n2N=C(c2ccccc2)CS3)cc(OC)c1OC,,"3.55 µM [rising, single point]"
O=C(O)c1cc2nc3c(c(C(F)(F)F)n2n1)CCCC3,"0.794 µM [rising, full curve, poor fit]",
COc1ccc(NC(=S)NC(NC(=O)c2cccc(Cl)c2)C(Cl)(Cl)Cl)c([N+](=O)[O-])c1 (configuration not stated),"35.5 µM [falling, single point]",
COc1ccc(-c2csc(NC(=O)C3CCCCN3S(=O)(=O)c3ccccc3)n2)cc1 (configuration not stated),"2.82 µM [rising, full curve]","7.08 µM [rising, full curve]"
CCOc1ccc(OCC)c(NC(=O)CSc2nc3ccccc3c(=O)n2C)c1,,"4.47 µM [rising, full curve]"
CCNc1ncc2nc(-c3cccs3)c(=O)n(Cc3cccc(OC)c3)c2n1,"20 µM [falling, partial curve, poor fit]","17.8 µM [falling, partial curve, poor fit]"
CCc1cc2ccc(C)cc2nc1SCC(=O)Nc1cc(OC)c(OC)cc1C(=O)O,,"22.4 µM [rising, partial curve, poor fit]"
O=C(C(Cc1ccccc1)N1C(=O)c2ccccc2C1=O)N1c2ccccc2CCc2ccccc21 (configuration not stated),,"10 µM [rising, partial curve]"
OCl,"3.16 µM [rising, single point]",
Cc1cc(Cl)cc(Br)c1OCCCNCC(C)O (configuration not stated),"0.0282 µM [rising, full curve, poor fit]","35.5 µM [rising, partial curve, poor fit]"
CN(C)c1ccc(-c2nc3ccccc3n2C)cc1,"14.1 µM [rising, single point]","20 µM [rising, single point]"
CN(C)C(CNC(=O)c1cccc(S(=O)(=O)N(C)C)c1)c1ccccc1 (configuration not stated),"5.62 µM [falling, single point]",
CN(C)c1ccc(N=Nc2ccccc2C(=O)OCC(=O)N(C)C2CCCCC2)cc1,,"7.94 µM [rising, partial curve, poor fit]"
Cc1cc(=O)oc2cc(OCc3ccc(C(=O)N4CCN(c5ccccc5)CC4)cc3)ccc12,"6.31 µM [rising, partial curve]","15.8 µM [rising, partial curve]"
CC(=O)Oc1ccc2ccccc2c1C(NC(=O)C(C)C)c1cccc([N+](=O)[O-])c1 (configuration not stated),,"20 µM [rising, single point]"
COc1ccc(C(=O)NCC(c2cccnc2)N2CCN(c3ccccc3OC)CC2)cc1 (configuration not stated),,"14.1 µM [rising, single point]"
CCc1ccc(OCC(=O)N/N=C(\C)c2ccccc2OC(F)F)cc1,,"11.2 µM [rising, single point]"

# Structural class: the compounds so far with bromine
Structure (SMILES),AC50 [1],AC50 [2]
O=S(=O)(c1ccc(Br)cc1)N1CCCC1c1nc2ccccc2s1 (configuration not stated),,"25.1 µM [rising, single point]"
Cc1cc(Cl)cc(Br)c1OCCCNCC(C)O (configuration not stated),"0.0282 µM [rising, full curve, poor fit]","35.5 µM [rising, partial curve, poor fit]"
